Results on 3 molecules are retold here after article PMC7563657.

Results are given in words; binding and its absence hold for the method and conditions named. In cells and extracts the contact can be indirect. For some assays here: Binding calls can cover weak binding; strength is not graded here.

The target of test [1] is T1, I-kappa B Kinase α (IKKα) (mouse (endogenous in BMPC of C57BL/6 mice)) (UniProt Q60680).
T1 sequence: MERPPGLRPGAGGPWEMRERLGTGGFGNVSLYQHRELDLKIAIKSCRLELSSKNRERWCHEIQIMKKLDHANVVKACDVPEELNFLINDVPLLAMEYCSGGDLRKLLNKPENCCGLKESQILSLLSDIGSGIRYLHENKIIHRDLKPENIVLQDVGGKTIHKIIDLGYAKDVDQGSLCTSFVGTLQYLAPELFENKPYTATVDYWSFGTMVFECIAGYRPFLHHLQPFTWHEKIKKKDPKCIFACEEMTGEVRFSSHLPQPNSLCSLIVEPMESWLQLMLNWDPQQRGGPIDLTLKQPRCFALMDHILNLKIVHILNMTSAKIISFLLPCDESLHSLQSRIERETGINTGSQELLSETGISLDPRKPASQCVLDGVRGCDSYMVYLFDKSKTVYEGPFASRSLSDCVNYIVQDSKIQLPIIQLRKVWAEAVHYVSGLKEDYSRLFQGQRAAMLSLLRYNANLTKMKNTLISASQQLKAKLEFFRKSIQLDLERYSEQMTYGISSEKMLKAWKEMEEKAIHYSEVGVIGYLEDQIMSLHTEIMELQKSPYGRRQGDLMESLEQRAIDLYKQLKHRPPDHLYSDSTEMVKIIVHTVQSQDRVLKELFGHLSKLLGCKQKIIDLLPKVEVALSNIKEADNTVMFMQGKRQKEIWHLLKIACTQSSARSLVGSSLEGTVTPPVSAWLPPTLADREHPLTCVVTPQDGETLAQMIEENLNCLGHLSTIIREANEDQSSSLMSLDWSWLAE
The test can be described thus: co-IP; lysates of murine BMPC incubated with endotoxin-containing ovalbumin (50 μg/mL); indicated primary antibody (Rab5, Akt, IKKα or IKKβ) or control IgG overnight at 4 °C in RIPA buffer, Protein A/G agarose beads, Western blot; some panels also with control siRNA or DMSO, siRNA or wortmannin/Bay11-7082 pretreatment. On the technique in general: A western blot detects proteins with antibodies after separation by electrophoresis.

Test [2] concerns the target Rab5 (mouse (endogenous in BMPC of C57BL/6 mice)). The test is described as above.
Test [3] concerns the target Protein kinase B (Akt) (mouse (endogenous in BMPC of C57BL/6 mice)). The description is as above.
Test [4] concerns the target Rab5 (mouse (endogenous in BMPC of C57BL/6 mice)). The test can be described thus: condition: only BMPC deficient (siRNA) in Akt, IKKα or IKKβ; co-IP; as a1 with Rab5 antibody, but BMPC made deficient in Akt, IKKα or IKKβ by siRNA before incubation with endotoxin-containing ovalbumin (50 μg/mL).

On to Rab5, for which, in test [1], the binding entry was “binds”.

B1: I-kappa B Kinase α (IKKα) (enzyme, UniProt Q60680 1-745)
chain: T1 sequence
Regarding B1, the binding entry in test [2] and in test [3] was “binds” each time.

B2: phosphorylated IKKα (enzyme, UniProt Q60680 1-745)
chain: T1 sequence
modifications: phosphorylated (Ser176/180), as the detecting antibody is named
Consider B2, for which the binding entry is reported as “no binding” in test [4] and “binds” in test [2].
